What all share (experiment): co-IP; DU145 cells co-transfected for 48 h (myc-PIAS1 or myc-PIAS1 K117L, with or without SUMO3 and AR), cross-linked with 1-2 mM dithio-bis succinimidyl propionate for 30 min, lysed in 50 mM Tris-HCl pH 7.4/150 mM NaCl/1% NP-40/1 mM EDTA; immunoprecipitation with anti-myc antibody at 4 °C for 3 h
Assay [1] deals with PIAS1 K117L (myc-PIAS1 (K117 L)) (human) (UniProt O75925).
Assay [2] concerns the target PIAS1 (myc-PIAS1, unmodified, ~71 kDa) (human) (UniProt O75925).
The target in assay [3] is SUMO3-modified PIAS1 (myc-PIAS1 conjugated with SUMO3 at K117, ~120 kDa) (UniProt O75925).

Chains of the proteins cited; added tags and fusions are not shown. Lines headed by an entry give the natural chain unless they say otherwise; changes in a name come on top.
UniProt O75925: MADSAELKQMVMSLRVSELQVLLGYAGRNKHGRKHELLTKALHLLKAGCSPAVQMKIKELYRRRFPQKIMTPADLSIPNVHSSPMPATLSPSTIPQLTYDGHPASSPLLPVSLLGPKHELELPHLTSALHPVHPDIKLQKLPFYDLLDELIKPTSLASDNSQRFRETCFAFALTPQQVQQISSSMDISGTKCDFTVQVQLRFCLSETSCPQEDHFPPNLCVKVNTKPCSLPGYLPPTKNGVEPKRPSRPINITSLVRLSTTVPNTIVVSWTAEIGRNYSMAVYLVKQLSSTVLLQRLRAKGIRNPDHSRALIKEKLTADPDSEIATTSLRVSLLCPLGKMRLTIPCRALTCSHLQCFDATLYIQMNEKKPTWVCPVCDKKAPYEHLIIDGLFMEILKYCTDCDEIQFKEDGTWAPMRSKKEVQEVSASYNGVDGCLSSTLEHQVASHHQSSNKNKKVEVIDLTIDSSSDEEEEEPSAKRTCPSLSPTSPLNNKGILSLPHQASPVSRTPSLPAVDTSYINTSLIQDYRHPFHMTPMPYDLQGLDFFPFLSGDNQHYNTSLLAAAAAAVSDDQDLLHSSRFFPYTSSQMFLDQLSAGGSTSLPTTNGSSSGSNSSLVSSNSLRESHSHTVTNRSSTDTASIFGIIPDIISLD
UniProt Q00987: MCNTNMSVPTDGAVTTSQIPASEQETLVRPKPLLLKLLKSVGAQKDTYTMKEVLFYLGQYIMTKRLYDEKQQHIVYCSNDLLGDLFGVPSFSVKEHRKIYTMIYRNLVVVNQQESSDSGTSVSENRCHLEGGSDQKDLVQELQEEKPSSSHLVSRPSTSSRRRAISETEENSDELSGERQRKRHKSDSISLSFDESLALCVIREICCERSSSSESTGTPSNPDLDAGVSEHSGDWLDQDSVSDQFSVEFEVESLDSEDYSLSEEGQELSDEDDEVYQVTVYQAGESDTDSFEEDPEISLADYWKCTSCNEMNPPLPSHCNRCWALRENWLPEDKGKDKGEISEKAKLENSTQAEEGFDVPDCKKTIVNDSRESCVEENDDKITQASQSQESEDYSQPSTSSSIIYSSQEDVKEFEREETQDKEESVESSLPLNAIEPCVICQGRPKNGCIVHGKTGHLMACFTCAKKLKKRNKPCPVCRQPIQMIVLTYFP

Results are given in words; binding and its absence hold for the method and conditions named. In cells and extracts the contact can be indirect. Some entries that bind do so weakly or less than the wild type.

In the case of “MDM2 (double minute 2 protein, ubiquitin E3 ligase) (from UniProt Q00987 1-491)”, the binding entry in assay [1] was “no binding”; in assay [2] it was “no binding”; in assay [3] it was “binds”.

(Values after publication PMC6868827.)
